The target of assay [1] is MYC2, yeast two-hybrid fusion (Arabidopsis thaliana) (UniProt Q39204). In words: two-hybrid; yeast AH109; SPF1/SPF2 in pDEST22 (GAL4 activation domain), MYC2 in pDEST32 (GAL4 DNA-binding domain); growth on medium lacking Trp, Leu, His with 3-AT (2 mM); beta-galactosidase assay with CPRG.
For assay [2], the target named is MYC2 fused to the C-terminal domain of YFP (BiFC construct) (Arabidopsis thaliana) (UniProt Q39204). In words: split reporter; BiFC with YFP halves (pYFN43, pYFC43) in epidermal cells of N. benthamiana leaves co-infiltrated with A. tumefaciens GV3101; confocal imaging.

Amino acid sequences for entries named in this document (tags omitted). A change or cut given only in a name is not applied to a line headed by its entry.
UniProt Q39204: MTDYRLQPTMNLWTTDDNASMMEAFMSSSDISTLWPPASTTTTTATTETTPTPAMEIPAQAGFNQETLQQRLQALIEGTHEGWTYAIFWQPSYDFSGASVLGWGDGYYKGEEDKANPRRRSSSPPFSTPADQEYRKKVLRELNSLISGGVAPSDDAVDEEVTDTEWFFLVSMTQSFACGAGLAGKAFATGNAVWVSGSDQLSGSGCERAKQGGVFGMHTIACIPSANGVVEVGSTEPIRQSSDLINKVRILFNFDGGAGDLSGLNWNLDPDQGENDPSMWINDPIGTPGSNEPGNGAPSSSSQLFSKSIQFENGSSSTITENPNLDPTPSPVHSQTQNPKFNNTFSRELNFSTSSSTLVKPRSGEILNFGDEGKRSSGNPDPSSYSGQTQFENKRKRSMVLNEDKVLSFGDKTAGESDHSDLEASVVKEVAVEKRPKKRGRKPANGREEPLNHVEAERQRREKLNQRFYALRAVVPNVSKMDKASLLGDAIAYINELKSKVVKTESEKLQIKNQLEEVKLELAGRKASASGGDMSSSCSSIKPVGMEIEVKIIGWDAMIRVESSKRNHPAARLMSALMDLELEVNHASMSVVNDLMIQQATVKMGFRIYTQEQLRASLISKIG
UniProt Q8L7S0: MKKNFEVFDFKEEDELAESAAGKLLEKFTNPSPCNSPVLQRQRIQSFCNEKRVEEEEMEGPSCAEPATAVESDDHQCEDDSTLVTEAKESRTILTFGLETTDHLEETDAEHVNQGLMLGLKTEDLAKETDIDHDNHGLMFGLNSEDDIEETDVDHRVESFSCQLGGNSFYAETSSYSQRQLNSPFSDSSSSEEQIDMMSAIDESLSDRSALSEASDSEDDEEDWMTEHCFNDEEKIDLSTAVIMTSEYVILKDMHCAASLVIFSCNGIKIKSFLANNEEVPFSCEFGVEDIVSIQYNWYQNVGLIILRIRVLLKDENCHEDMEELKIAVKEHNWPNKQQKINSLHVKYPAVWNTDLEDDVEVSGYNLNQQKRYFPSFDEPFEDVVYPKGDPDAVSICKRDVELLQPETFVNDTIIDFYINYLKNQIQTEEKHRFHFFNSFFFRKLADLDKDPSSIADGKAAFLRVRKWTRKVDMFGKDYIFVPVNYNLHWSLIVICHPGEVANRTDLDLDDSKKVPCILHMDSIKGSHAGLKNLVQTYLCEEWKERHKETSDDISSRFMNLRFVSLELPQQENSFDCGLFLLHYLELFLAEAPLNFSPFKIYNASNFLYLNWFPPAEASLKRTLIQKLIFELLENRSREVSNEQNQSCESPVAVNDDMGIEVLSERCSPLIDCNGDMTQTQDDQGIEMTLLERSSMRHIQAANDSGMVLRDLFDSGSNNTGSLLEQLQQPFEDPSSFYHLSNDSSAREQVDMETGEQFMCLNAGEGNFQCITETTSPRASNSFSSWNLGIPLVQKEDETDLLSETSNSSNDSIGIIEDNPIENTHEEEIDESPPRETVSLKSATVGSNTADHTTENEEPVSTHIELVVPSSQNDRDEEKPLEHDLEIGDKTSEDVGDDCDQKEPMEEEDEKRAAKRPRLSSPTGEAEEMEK
UniProt Q0WKV8: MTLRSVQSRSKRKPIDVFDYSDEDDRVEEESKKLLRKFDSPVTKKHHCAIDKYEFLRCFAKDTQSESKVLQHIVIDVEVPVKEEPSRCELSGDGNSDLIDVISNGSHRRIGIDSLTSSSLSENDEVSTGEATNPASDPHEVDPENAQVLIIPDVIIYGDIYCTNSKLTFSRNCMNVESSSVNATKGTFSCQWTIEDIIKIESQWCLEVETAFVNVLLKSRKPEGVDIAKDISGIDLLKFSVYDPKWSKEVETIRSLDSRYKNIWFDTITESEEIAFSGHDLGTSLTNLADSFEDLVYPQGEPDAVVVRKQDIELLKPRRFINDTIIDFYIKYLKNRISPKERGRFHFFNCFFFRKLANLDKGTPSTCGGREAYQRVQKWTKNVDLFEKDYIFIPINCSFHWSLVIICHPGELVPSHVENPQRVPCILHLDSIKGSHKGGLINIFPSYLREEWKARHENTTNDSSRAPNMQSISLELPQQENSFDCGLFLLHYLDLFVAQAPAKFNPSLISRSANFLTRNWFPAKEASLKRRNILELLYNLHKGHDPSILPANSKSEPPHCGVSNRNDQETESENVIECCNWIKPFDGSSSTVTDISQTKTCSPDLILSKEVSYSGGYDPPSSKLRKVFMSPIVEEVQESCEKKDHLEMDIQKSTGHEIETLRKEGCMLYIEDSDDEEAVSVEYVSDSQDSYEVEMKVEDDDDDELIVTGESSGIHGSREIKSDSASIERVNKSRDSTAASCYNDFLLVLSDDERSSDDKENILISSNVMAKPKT

No constants are given. Whether binding was seen depends on the method and setting. A result given as binding can be weak or reduced; the word gives no strength. For some of these results: Binding seen in cells or lysates may run through a third protein.

These results are taken from article PMC9338799.

Regarding “SPF1, yeast two-hybrid fusion (from UniProt Q8L7S0) (enzyme)”, the binding result in assay [1] was “binds”.

“SPF1 fused to the N-terminal domain of YFP (BiFC construct) (from UniProt Q8L7S0) (enzyme)”: in assay [2], the binding entry was “binds”.

With “SPF2 fused to the N-terminal domain of YFP (BiFC construct) (from UniProt Q0WKV8) (enzyme)”, the binding entry in assay [2] was “binds”.

With “SPF2, yeast two-hybrid fusion (from UniProt Q0WKV8) (enzyme)”, the binding result in assay [1] is “binds”.
